Results deposited as PubChem BioAssay AID652259 (Drosophila RNAi Screening Center, 2013)

- Assay: 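Genome-wide hunt for genes that control Wingless pathway activity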 (primary screen)
- Cells: Drosophila clone 8 imaginal disc epithelial cells
- Knock-down reagent: long dsRNA against Drosophila genes
- Treatment: pathway stimulated by co-transfected Wingless expression plasmid
- Detection: 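Firefly luciferase from a tcf-site Wingless reporter, measured alongside co-transfected Renilla luciferase that tracks transfection; pathway stimulated by a Wingless plasmid; the firefly-to-Renilla ratio is not deposited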
- Scale: firefly reporter light: higher = more Wg reporter light, before normalisation; Renilla control light: higher = more transfected or surviving cells
- Call rule: 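a knock-down is a candidate when at least two out of four statistical tests show it departing from its plate mean; one test alone signals a weak candidate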
- Meaning of the calls: active = candidate regulator (raises or lowers reporter); inactive = not a candidate
The screen tested about 22,000 reagents; shown is an unselected part of those with a known target gene and a result. In the full data, 233 (1.1%) are marked active. 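Light values are raw, unnormalised plate reads; the ratio scores behind the reporter calls were not deposited.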 Unmarked entries are inactive. A plus sign joins genes that one reagent is predicted to hit. The record does not give: the amount of reagent, the time to read-out, the dose of the treatment.

gene,amplicon,"firefly reporter light, replicate 1","firefly reporter light, replicate 2","Renilla control light, replicate 1","Renilla control light, replicate 2"
CG12605,DRSC08286,2704,,1467,
CG5762,DRSC15869,2483,4871,1043,1418
CIAPIN1 (Cytokine induced apoptosis inhibitor 1),DRSC03559,6013,,1203,
Ugt36A1 (UDP-glycosyltransferase family 36 member A1),DRSC00748,4184,8157,1840,1197
Ero1L (Endoplasmic reticulum oxidoreductin-1-like),DRSC08660,5226,,2048,
CG8617,DRSC07223,5072,,1435,
CAH1 + Adat1,DRSC02009,11641,,3964,
CG30195,DRSC04155,3445,8907,848,3680
Rfk (Riboflavin kinase),DRSC15454,4370,,800,
lig (lingerer),DRSC07246,9005,,1206,
lig (lingerer),DRSC07247,3360,6546,816,2941
CG42394 + CG6567,DRSC12821,5512,,2596,
CG31370,DRSC21453,5.29e5,5.32e5,1.90e5,1.94e5
Or85d (Odorant receptor 85d),DRSC16767,16472,,3208,
tsh (teashirt),DRSC03740,2563,4449,752,1936
SuUR (Suppressor of Under-Replication),DRSC11292,8540,,3996,

In a second layout: results already given
CG8617 [DRSC07223]
- firefly reporter light, replicate 1: 5072
- Renilla control light, replicate 1: 1435

CAH1 + Adat1 [DRSC02009]
- firefly reporter light, replicate 1: 11641
- Renilla control light, replicate 1: 3964

The list goes on:
gene,amplicon,"firefly reporter light, replicate 1","firefly reporter light, replicate 2","Renilla control light, replicate 1","Renilla control light, replicate 2"
CG14109,DRSC10112,6423,,2489,
CYLD (Cylindromatosis),DRSC02870,2205,9299,876,3942
smid (smallminded),DRSC11398,3117,10184,2164,4501
Rbbp5 + CG6434 (retired record),DRSC10635,18460,,5131,
alphaKap4 (alpha Karyopherin-4),DRSC09823,2004,5920,1352,2843
CG13229,DRSC06349,5146,,3301,
CG31788,DRSC01630,27890,,12441,
CG34450,DRSC17822,3668,7481,1172,2992
CG8531,DRSC07209,11248,,3283,
CG42564,DRSC12518,18557,,4307,
FIG4 (FIG4 phosphoinositide 5-phosphatase),DRSC00515,11692,,3852,
BubR1 (Bub1-related kinase),DRSC04838,3014,7324,762,2235
CG17186,DRSC15180,14122,,4486,
